Source: patent US20030129186A1
Results are given in words; binding and its absence hold for the method and conditions named. A result given as binding can be weak or reduced; the word gives no strength.

Molecular target: p97 receptor on isolated human brain capillaries (human)
Experiment: [125I]-p97 ligand binding on 100 µg human brain capillaries, cross-linking, non-reducing SDS-PAGE, autoradiography (FIG. 31)

B1: recombinant human melanotransferrin (p97) (ligand, UniProt P08582 20-709, looked up)
chain: GMEVRWCATSDPEQHKCGNMSEAFREAGIQPSLLCVRGTSADHCVQLIAAQEADAITLDGGAIYEAGKEHGLKPVVGEVYDQEVGTSYYAVAVVRRSSHVTIDTLKGVKSCHTGINRTVGWNVPVGYLVESGRLSVMGCDVLKAVSDYFGGSCVPGAGETSYSESLCRLCRGDSSGEGVCDKSPLERYYDYSGAFRCLAEGAGDVAFVKHSTVLENTDGKTLPSWGQALLSQDFELLCRDGSRADVTEWRQCHLARVPAHAVVVRADTDGGLIFRLLNEGQRLFSHEGSSFQMFSSEAYGQKDLLFKDSTSELVPIATQTYEAWLGHEYLHAMKGLLCDPNRLPPYLRWCVLSTPEIQKCGDMAVAFRRQRLKPEIQCVSAKSPQHCMERIQAEQVDAVTLSGEDIYTAGKTYGLVPAAGEHYAPEDSSNSYYVVAVVRRDSSHAFTLDELRGKRSCHAGFGSPAGWDVPVGALIQRGFIRPKDCDVLTAVSEFFNASCVPVNNPKNYPSSLCALCVGDEQGRNKCVGNSQERYYGYRGAFRCLVENAGDVAFVRHTTVFDNTNGHNSEPWAAELRSEDYELLCPNGARAEVSQFAACNLAQIPPHAVMVRPDTNIFTVYGLLDKAQDLFGDDHNKNGFKMFDSSNYHGQDLLFKDATVRAVPVGEKTTYRGWLGLDYVAALEGMSSQQC
binding: binds
